Data on 37 targets can be found in the supplement of paper PMC11732987, “Enantioselective OTUD7B fragment discovery through chemoproteomics screening and high-throughput optimisation” (Communications Chemistry, 2025).

Amino acid sequences for entries named in this document (tags omitted). A change or cut given only in a name is not applied to a line headed by its entry. Residues count along the entry.
UniProt Q92556, whole entry, looked up: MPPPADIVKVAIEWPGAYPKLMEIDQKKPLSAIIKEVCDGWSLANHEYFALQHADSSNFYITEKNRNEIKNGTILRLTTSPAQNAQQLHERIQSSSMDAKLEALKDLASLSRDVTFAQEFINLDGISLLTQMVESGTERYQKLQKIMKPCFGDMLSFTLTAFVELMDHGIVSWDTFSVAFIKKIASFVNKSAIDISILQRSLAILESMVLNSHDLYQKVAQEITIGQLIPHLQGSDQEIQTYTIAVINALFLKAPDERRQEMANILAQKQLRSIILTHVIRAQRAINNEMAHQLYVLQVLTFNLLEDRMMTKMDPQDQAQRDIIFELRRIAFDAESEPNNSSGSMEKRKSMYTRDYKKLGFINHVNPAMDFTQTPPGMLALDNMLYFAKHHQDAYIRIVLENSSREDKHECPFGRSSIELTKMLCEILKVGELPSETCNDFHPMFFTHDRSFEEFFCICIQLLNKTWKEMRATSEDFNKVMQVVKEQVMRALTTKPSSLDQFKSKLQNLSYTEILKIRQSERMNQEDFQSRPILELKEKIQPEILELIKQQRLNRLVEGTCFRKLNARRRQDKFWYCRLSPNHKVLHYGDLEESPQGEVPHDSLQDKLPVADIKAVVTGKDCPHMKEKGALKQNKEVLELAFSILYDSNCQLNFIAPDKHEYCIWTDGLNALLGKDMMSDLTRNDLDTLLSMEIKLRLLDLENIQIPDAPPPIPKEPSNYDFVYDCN
UniProt Q8IXS8: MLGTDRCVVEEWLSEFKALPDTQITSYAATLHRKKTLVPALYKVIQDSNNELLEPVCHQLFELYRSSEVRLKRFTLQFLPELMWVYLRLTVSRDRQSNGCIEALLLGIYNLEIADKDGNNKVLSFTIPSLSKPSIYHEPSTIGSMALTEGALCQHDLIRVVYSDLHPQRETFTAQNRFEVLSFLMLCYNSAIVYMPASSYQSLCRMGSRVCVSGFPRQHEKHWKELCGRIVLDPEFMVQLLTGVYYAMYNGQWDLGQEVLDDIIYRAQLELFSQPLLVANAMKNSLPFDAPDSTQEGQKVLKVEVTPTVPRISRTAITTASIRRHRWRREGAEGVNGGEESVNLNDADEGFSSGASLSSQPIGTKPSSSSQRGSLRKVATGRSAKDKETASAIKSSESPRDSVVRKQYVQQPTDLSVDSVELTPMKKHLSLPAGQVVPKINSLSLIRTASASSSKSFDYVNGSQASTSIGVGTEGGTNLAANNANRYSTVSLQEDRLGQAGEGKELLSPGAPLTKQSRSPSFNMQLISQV
UniProt Q9P2D6: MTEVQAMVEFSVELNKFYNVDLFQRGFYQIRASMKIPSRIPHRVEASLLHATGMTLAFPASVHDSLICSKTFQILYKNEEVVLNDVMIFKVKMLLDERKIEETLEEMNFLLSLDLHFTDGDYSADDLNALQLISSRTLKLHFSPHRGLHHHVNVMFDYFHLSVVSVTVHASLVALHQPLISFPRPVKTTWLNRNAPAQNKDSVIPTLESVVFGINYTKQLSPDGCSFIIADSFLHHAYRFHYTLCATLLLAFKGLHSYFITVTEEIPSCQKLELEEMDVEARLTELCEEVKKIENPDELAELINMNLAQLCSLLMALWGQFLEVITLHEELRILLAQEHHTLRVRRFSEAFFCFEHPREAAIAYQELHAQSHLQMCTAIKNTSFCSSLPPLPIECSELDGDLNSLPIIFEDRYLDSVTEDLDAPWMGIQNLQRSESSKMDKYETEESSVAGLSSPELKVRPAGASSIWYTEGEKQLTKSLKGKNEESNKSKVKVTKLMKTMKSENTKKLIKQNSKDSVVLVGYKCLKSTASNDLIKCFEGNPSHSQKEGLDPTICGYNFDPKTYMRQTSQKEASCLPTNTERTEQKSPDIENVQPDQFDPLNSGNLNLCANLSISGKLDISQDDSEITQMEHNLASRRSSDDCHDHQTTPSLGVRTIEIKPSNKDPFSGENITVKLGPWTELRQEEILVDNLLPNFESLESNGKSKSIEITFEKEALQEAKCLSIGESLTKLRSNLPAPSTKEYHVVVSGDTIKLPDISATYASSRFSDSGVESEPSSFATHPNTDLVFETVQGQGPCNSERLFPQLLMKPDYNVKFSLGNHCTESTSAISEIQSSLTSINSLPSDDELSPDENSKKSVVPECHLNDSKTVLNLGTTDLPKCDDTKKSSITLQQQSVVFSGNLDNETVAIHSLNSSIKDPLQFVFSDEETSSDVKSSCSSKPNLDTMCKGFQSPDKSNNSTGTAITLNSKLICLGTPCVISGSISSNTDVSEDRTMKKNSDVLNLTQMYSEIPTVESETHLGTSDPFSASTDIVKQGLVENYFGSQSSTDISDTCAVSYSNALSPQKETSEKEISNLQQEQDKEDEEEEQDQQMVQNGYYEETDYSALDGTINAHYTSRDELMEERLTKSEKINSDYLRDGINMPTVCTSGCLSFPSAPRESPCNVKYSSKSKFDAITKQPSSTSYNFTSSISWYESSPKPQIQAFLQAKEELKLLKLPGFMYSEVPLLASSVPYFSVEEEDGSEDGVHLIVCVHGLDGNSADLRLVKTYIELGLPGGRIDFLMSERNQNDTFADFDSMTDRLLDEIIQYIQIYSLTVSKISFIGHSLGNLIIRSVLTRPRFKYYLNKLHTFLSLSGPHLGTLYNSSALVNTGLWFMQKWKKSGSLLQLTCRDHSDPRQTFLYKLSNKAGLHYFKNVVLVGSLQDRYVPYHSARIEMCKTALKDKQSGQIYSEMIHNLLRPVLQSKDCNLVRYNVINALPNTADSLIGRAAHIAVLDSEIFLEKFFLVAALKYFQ
UniProt Q14153: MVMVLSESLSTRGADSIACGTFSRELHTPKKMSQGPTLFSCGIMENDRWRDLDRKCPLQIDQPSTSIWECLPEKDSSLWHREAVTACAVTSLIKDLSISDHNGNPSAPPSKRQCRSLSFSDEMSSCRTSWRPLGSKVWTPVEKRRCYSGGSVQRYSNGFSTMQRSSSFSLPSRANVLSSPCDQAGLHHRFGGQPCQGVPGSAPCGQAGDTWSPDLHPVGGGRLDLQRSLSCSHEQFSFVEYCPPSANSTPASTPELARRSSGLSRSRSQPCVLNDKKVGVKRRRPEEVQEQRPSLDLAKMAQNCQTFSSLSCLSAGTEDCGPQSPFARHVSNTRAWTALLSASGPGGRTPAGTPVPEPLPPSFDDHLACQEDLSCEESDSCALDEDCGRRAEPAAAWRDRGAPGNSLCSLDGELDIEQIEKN
UniProt O43491: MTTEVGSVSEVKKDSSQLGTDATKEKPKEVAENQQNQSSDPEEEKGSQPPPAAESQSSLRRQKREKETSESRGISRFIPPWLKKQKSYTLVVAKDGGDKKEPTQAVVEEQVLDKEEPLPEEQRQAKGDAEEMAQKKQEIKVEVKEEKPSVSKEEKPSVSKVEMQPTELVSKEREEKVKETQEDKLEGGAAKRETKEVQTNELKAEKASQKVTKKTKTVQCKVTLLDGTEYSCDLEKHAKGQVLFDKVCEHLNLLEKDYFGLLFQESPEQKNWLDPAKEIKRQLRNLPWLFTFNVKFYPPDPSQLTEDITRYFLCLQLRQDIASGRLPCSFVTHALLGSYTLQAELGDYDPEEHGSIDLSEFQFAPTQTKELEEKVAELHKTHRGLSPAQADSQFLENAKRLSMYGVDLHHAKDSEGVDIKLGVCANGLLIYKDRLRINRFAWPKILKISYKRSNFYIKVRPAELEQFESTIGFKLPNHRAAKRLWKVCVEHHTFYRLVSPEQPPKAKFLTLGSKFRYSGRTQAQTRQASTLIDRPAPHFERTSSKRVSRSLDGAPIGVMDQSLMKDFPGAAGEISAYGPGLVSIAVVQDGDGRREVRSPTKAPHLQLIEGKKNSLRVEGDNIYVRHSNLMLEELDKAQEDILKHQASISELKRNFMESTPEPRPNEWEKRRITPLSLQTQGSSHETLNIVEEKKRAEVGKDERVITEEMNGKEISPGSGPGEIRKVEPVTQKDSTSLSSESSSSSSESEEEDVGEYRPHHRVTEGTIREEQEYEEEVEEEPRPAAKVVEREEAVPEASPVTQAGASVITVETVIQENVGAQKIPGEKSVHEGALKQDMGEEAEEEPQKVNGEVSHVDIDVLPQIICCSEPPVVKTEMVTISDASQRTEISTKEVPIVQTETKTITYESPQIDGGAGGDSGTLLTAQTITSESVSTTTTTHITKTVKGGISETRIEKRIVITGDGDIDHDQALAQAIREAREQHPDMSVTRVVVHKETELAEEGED
UniProt Q6IA86, 121-140: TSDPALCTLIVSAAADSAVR
UniProt Q9NQT5: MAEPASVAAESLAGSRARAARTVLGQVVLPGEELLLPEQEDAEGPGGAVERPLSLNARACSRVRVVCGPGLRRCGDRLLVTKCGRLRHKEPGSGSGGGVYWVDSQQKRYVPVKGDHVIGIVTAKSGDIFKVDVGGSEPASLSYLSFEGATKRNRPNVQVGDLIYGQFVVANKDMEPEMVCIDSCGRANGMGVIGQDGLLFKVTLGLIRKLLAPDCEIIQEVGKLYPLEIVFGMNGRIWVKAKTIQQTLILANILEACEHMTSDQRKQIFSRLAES
UniProt Q96EB1, 2-23: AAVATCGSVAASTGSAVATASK
UniProt O60447: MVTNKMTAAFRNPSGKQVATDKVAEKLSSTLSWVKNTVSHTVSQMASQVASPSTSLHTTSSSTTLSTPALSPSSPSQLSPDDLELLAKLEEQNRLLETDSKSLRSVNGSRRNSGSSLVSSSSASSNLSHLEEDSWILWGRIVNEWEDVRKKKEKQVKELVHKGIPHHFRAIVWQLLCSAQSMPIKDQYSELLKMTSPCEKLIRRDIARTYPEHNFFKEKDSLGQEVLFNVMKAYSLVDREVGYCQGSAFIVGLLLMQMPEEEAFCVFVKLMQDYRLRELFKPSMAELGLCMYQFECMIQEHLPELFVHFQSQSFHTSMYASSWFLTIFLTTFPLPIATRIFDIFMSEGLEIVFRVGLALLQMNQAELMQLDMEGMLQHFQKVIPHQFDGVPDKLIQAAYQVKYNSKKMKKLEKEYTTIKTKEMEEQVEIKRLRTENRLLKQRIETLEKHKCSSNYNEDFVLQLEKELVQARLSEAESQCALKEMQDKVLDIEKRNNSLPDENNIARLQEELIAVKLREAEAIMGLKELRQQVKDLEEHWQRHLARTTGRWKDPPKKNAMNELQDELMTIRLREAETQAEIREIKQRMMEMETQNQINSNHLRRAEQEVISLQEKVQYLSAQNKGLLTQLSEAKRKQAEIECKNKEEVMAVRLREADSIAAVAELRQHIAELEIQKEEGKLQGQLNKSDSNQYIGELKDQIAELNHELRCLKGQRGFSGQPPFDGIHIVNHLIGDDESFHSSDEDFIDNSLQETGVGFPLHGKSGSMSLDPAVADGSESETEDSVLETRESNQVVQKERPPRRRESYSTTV
UniProt Q2NKX8: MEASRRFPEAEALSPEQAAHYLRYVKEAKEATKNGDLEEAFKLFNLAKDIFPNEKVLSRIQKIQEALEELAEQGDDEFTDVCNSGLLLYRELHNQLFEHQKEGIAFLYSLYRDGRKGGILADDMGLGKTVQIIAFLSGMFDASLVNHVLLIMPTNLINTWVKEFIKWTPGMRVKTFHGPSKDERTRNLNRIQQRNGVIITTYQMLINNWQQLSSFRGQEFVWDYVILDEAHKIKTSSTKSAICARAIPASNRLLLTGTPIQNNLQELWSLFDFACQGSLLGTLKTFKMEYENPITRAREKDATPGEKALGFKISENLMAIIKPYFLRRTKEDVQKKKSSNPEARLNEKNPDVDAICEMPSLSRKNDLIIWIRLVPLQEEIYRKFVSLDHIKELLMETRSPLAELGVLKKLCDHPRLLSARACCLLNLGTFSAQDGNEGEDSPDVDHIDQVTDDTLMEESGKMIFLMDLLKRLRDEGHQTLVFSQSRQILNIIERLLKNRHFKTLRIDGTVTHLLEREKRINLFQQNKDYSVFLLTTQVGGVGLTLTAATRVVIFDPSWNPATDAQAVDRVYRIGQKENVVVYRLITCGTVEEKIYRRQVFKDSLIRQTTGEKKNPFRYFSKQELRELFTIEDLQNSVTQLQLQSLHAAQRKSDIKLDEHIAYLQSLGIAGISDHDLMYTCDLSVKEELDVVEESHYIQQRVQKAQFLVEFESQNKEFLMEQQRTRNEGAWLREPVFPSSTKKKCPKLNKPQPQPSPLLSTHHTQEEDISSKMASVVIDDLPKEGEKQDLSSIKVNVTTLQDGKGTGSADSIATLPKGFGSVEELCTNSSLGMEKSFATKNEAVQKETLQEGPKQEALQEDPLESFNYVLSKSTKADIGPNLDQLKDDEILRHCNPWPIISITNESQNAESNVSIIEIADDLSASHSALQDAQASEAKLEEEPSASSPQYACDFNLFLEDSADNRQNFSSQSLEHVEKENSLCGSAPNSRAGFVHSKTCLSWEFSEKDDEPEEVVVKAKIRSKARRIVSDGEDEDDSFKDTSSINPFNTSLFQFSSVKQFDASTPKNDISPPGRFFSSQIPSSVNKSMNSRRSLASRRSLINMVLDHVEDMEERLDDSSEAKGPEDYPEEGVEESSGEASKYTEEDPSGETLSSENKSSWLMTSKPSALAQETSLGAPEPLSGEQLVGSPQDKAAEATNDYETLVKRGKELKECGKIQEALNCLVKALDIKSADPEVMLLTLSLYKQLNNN

The other results are listed elsewhere or left out. The data scatter; read single values as rough.

Compound in the first assay: ClCC(=O)N[C@H]1CCCc2ccccc12
As to the kind of experiment: log2 mean competition ratio of IA-DTB cysteine labelling (DMSO/compound) (log2 ratio); higher = stronger cysteine engagement by compound. To be noted: 50 µM; treatment time: 4 h; cell line lysate: HEK293T. The method, then:
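IA-DTB competitive cysteine chemoproteomics in HEK293T RIPA lysate. Lysates were treated with compound 29 or 30 at 50 or 200 µM for 4 h, then IA-DTB (500 µM, 1 h), trypsin-digested, NeutrAvidin-enriched and analysed by diaPASEF. Competition ratio = intensity DMSO / intensity compound (n=4 treated, n=64 DMSO); binding: mean log2 CR ≥ 1 and p ≤ 0.05 plus QC filters. Target is the cysteine site.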
For the target ELMO1 C411 (UniProt Q92556), the “log2 mean competition ratio” value is 0.0767.

ERCC2 C588 (UniProt P18074): the “log2 mean competition ratio” value was -0.221.

Turning to FAM126B C7 (UniProt Q8IXS8), the “log2 mean competition ratio” value is -0.00287.

As for ERCC8 C88 (UniProt Q13216), the “log2 mean competition ratio” value was -0.14.

As for ETV6 C8 (UniProt P41212), the “log2 mean competition ratio” value is -0.306.

ELL C595 (UniProt P55199): the “log2 mean competition ratio” value turned out to be 0.194.

With FAM135A C863 (UniProt Q9P2D6), the “log2 mean competition ratio” value is 0.0865.

Regarding ENOX2 C216, the “log2 mean competition ratio” value is -0.203.

ERCC3 C342 (UniProt P19447): the “log2 mean competition ratio” value was found to be 0.691.

For the target EMC4 C69 (UniProt Q5J8M3), the “log2 mean competition ratio” value worked out at 0.179.

EMC8 C161 (UniProt O43402): the “log2 mean competition ratio” value turned out to be 0.0503.

Regarding EXPH5 C1311, the “log2 mean competition ratio” value was 0.0286.

On to ENPP1 C6, for which the “log2 mean competition ratio” value is -0.0912.

As for FAM53B C87 (UniProt Q14153), the “log2 mean competition ratio” value was -0.285.

Take ESD C11 (UniProt P10768): the “log2 mean competition ratio” value was -0.472.

In the case of EPB41L2 C232 (UniProt O43491), the “log2 mean competition ratio” value was -0.341.

On to ERCC2 C259 (UniProt P18074), for which the “log2 mean competition ratio” value was -0.0856.

FAM117B C244 (UniProt Q6P1L5): the “log2 mean competition ratio” value came out at 0.246.

Take ENAH C7 (UniProt Q8N8S7): the “log2 mean competition ratio” value was -0.317.

For ELP1 C820 (UniProt O95163), the “log2 mean competition ratio” value is -0.707.

As for ESYT2 C611, the “log2 mean competition ratio” value is -0.497.

For ELP2 C127 (UniProt Q6IA86), the “log2 mean competition ratio” value is -0.525.

For the target EXOC5 C254 (UniProt O00471), the “log2 mean competition ratio” value was -0.203.

As for EXOSC3 C215 (UniProt Q9NQT5), the “log2 mean competition ratio” value is -0.329.

Turning to ENGASE C113 (UniProt Q8NFI3), the “log2 mean competition ratio” value was found to be 0.177.

Consider EXD2 C284 (UniProt Q9NVH0), for which the “log2 mean competition ratio” value is -0.222.

With FAM91A1 C141 (UniProt Q658Y4), the “log2 mean competition ratio” value is 0.0793.

For ERCC6 C143, the “log2 mean competition ratio” value is -0.211.

Regarding ERI3 C313, the “log2 mean competition ratio” value was -0.265.

On to ELP4 C7 (UniProt Q96EB1), for which the “log2 mean competition ratio” value is -0.369.

For the target FANCI C594 (UniProt Q9NVI1), the “log2 mean competition ratio” value was -0.187.

With EML4 C82 (UniProt Q9HC35), the “log2 mean competition ratio” value amounted to 0.436.

Regarding “ERO1A_(C99,C99,C104,C104) (UniProt Q96HE7)”, the “log2 mean competition ratio” value is -0.189.

Take EVI5 C479 (UniProt O60447): the “log2 mean competition ratio” value is -0.392.

With ERCC6L C587 (UniProt Q2NKX8), the “log2 mean competition ratio” value is -0.281.

Take ETHE1 C170 (UniProt O95571): the “log2 mean competition ratio” value came to 0.253.

Consider ERCC2 C116 (UniProt P18074), for which the “log2 mean competition ratio” value worked out at 0.0459.

The assay is the same for the next values; noted with them: 200 µM; treatment time: 4 h; cell line lysate: HEK293T.
On to ELMO1 C411 (UniProt Q92556), for which the “log2 mean competition ratio” value worked out at 0.685.

ERCC2 C588 (UniProt P18074): the “log2 mean competition ratio” value is -0.0733.

As to FAM126B C7 (UniProt Q8IXS8), the “log2 mean competition ratio” value came out at 0.136.

Regarding ERCC8 C88 (UniProt Q13216), the “log2 mean competition ratio” value is -0.1.

As to ETV6 C8 (UniProt P41212), the “log2 mean competition ratio” value is 0.163.

As for ELL C595 (UniProt P55199), the “log2 mean competition ratio” value is 0.297.

For FAM135A C863 (UniProt Q9P2D6), the “log2 mean competition ratio” value was -0.00301.

ENOX2 C216: the “log2 mean competition ratio” value was -0.0343.

Consider ERCC3 C342 (UniProt P19447), for which the “log2 mean competition ratio” value was found to be 0.644.

As to EMC4 C69 (UniProt Q5J8M3), the “log2 mean competition ratio” value is -0.0599.

In the case of EMC8 C161 (UniProt O43402), the “log2 mean competition ratio” value was -0.162.

For the target EXPH5 C1311, the “log2 mean competition ratio” value is 0.000206.

Consider ENPP1 C6, for which the “log2 mean competition ratio” value was determined as 0.431.

As for FAM53B C87 (UniProt Q14153), the “log2 mean competition ratio” value is 0.0869.

As for ESD C11 (UniProt P10768), the “log2 mean competition ratio” value was found to be 0.191.

In the case of EPB41L2 C232 (UniProt O43491), the “log2 mean competition ratio” value is -0.0363.

On to ERCC2 C259 (UniProt P18074), for which the “log2 mean competition ratio” value was 0.0461.

FAM117B C244 (UniProt Q6P1L5): the “log2 mean competition ratio” value came out at 0.14.

On to ENAH C7 (UniProt Q8N8S7), for which the “log2 mean competition ratio” value worked out at 0.248.

As to ELP1 C820 (UniProt O95163), the “log2 mean competition ratio” value was 0.362.

In the case of ESYT2 C611, the “log2 mean competition ratio” value was -0.298.

As for ELP2 C127 (UniProt Q6IA86), the “log2 mean competition ratio” value was -0.22.

Consider EXOC5 C254 (UniProt O00471), for which the “log2 mean competition ratio” value was -0.01.

As to EXOSC3 C215 (UniProt Q9NQT5), the “log2 mean competition ratio” value is -0.333.

On to ENGASE C113 (UniProt Q8NFI3), for which the “log2 mean competition ratio” value turned out to be 0.125.

EXD2 C284 (UniProt Q9NVH0): the “log2 mean competition ratio” value turned out to be 0.0281.

Turning to FAM91A1 C141 (UniProt Q658Y4), the “log2 mean competition ratio” value worked out at 0.23.

Consider ERCC6 C143, for which the “log2 mean competition ratio” value was -0.368.

In the case of ERI3 C313, the “log2 mean competition ratio” value came to 0.259.

As to ELP4 C7 (UniProt Q96EB1), the “log2 mean competition ratio” value came out at 0.0715.

Consider FANCI C594 (UniProt Q9NVI1), for which the “log2 mean competition ratio” value is -0.042.

As for EML4 C82 (UniProt Q9HC35), the “log2 mean competition ratio” value stood at 0.117.

With “ERO1A_(C99,C99,C104,C104) (UniProt Q96HE7)”, the “log2 mean competition ratio” value was -0.0839.

Regarding EVI5 C479 (UniProt O60447), the “log2 mean competition ratio” value was -0.184.

For the target ERCC6L C587 (UniProt Q2NKX8), the “log2 mean competition ratio” value was 0.0152.

Take ETHE1 C170 (UniProt O95571): the “log2 mean competition ratio” value was 0.185.

In the case of ERCC2 C116 (UniProt P18074), the “log2 mean competition ratio” value is -0.117.
